For part of these data: Expression values are those of the mRNA of the gene that encodes the peptide; a gene is named only where it was looked up.
Columns and labels:
[1] = test system: source genes (mRNA) in tumor and normal tissue; experiment: Expression profiling of genes encoding the peptides (RNAseq); parameters: species or system human
[2] = test system: HLA molecules from shock-frozen tissue samples; experiment: Identification and quantitation of tumor associated peptides presented on the cell surface (HLA immunoprecipitation, LC-MS); parameters: species or system human
[3] = tumor entities in which the source gene is highly over-expressed vs panel of normal tissues (Table 9a)
[4] = tumor entities in which the source gene is over-expressed vs panel of normal tissues (Table 9a)
[5] = cancer entities on which the peptide was detected by LC-MS of HLA ligands
[6] = tumor entities in which the source gene is over-expressed vs panel of normal tissues (Table 9b)
[7] = cancer entities on which the peptide was found presented (Table 8b)

| Substance | Gene Expression in tumor samples: highly over-expressed (++) [1, 3] | Gene Expression in tumor samples: over-expressed (+) [1, 4] | Peptide Presentation on cancer entities [2, 5] | Gene Expression in tumor samples: highly over-expressed (++) ([1]; tumor entities in which the source gene is highly over-expressed vs panel of normal tissues (Table 9b)) | Gene Expression in tumor samples: over-expressed (+) [1, 6] | Peptide Presentation on cancer entities [2, 7] |
| --- | --- | --- | --- | --- | --- | --- |
| 44: peptide found in MMP13 (gene looked up) (HAFPPGPNY; listed as Homo sapiens) [compound 44] | HNSCC, NSCLCsquam, OSCAR | NSCLCadeno, UBC | HNSCC | – | – | – |
| 81: peptide found in APOB (gene looked up) (HLFLPFSYK; listed as Homo sapiens) [compound 81] | HCC | – | CCC, HCC | – | – | – |
| 120: peptide found in DNTT (gene looked up) (TRMQKAGFLYY; listed as Homo sapiens) [compound 120] | AML | – | NSCLCsquam | – | – | – |
| 258: peptide found in F5 (gene looked up) (QVRDTLKIVFK; listed as Homo sapiens) [compound 258] | – | – | – | HCC | CCC | CCC, HCC, MEL, NSCLCadeno |
| 152: peptide found in SLC5A4 (gene looked up) (KIICGVHYLY; listed as Homo sapiens) [compound 152] | MEL | – | CRC | – | – | – |
| 225: peptide found in AR (gene looked up) (RVYPRPPSKTY; listed as Homo sapiens) [compound 225] | – | BRCA, HCC, PRCA | HCC, UEC | – | – | – |
| 171: peptide found in ABCB11 (gene looked up) (ATIGLSVSK; listed as Homo sapiens) [compound 171] | HCC | – | AML, HCC | – | – | – |
| 122: peptide found in F5 (gene looked up) (LIGPLLICK; listed as Homo sapiens) [compound 122] | HCC | CCC | CCC, HCC, NSCLCadeno, RCC, UEC | – | – | – |
| 266: peptide found in GPRC6A (gene looked up) (RNLNTPVVK; listed as Homo sapiens) [compound 266] | – | – | – | – | CRC | CRC, OSCAR |
| 210: peptide found in ADCY10 (gene looked up) (KIFQGQINK; listed as Homo sapiens) [compound 210] | – | HCC | HCC | – | – | – |
| 155: peptide found in APOB (gene looked up) (ALSHAVNNY; listed as Homo sapiens) [compound 155] | HCC | – | SCLC | – | – | – |
| 145: peptide found in FLT3 (gene looked up) (SLFEGIYTIK; listed as Homo sapiens) [compound 145] | AML | – | AML | – | – | – |
| 125: peptide found in PTPRZ1 (gene looked up) (VVYDTMIEKF; listed as Homo sapiens) [compound 125] | GBM | – | HNSCC | – | – | – |
| 124: peptide found in PTPRZ1 (gene looked up) (VVYDTMIEK; listed as Homo sapiens) [compound 124] | GBM | – | GBM | – | – | – |
| 25: peptide found in KISS1R (gene looked up) (KTWAHCMSY; listed as Homo sapiens) [compound 25] | RCC | BRCA, NSCLCadeno, UEC | BRCA, NSCLCadeno, RCC | – | – | – |
| 108: peptide found in PLA2G2D (gene looked up) (KMPILSYWPY; listed as Homo sapiens) [compound 108] | NHL | MEL, NSCLCother | CRC | – | – | – |
| 111: peptide found in GPR143 (gene looked up) (ATSPPASVR; listed as Homo sapiens) [compound 111] | MEL | – | HNSCC | – | – | – |
| 28: peptide found in PGR (gene looked up) (STLECILYK; listed as Homo sapiens) [compound 28] | UEC | BRCA | UEC | – | – | – |
| 270: peptide found in EPHA6 (gene looked up) (KFKPNQYTK; listed as Homo sapiens) [compound 270] | – | – | – | – | CCC | CRC, MEL |
| 129: peptide found in OXTR (gene looked up) (ALARVSSVKL; listed as Homo sapiens) [compound 129] | CCC | GBM, OC | CRC | – | – | – |
| 105: peptide found in CBX2 (gene looked up) (QVLDLQSVK; listed as Homo sapiens) [compound 105] | AML, BRCA, NSCLCother, NSCLCsquam, SCLC | CRC, GBC, GBM, HCC, HNSCC, MEL, NSCLCadeno, OC, OSCAR, UBC, UEC | CRC | – | – | – |
| 47: peptide found in QRFPR (gene looked up) (ALFGNALVFY; listed as Homo sapiens) [compound 47] | RCC | NSCLCsquam, OSCAR | RCC | – | – | – |
| 74: peptide found in NCAPD3 (gene looked up) (HSTLVALFY; listed as Homo sapiens) [compound 74] | PRCA | – | NHL | – | – | – |
| 185: peptide found in SLC6A2 (gene looked up) (SIINFKPLTY; listed as Homo sapiens) [compound 185] | – | HCC | HNSCC | – | – | – |

From patent US11872270B2, “A*03 restricted peptides for use in immunotherapy against cancers and related methods” (Immatics Biotechnologies GmbH, priority 2018, dated 2024)
